For at least one compound, name, drawing or mass did not settle the structure. Some entries repeat one wording, which the source may state once for all of them.
System: MG63.3 OS cell line
Assay: in vitro 3D BME assay with MG63.3 OS cell line
Assay type: cell-based, human
Conditions: MG63.3, 3D BME vs 2D MTT 72 h
Description: 3D basement membrane extract (BME) assay was developed at the NCI Barkan (D. Barkan et al. 2008; Dalit Barkan and Green 2011; Hen and Barkan 2020). BME is purified from Engelbreth-Holm-Swarm (EHS) tumor, primarily made up of laminin, collagen IV, entactin, and heparin sulfate proteoglycans (Cultrex Reduced Growth Factor Basement Membrane Extract, PathClear n.d.), which allows it to more accurately reflect the 3D extracellular environment in the body. […]
The influence of drug exposure on the metastatic phenotype was assessed in an in vitro assay of ME and escape from dormancy using a 3D BME assay as previously reported, which was adapted for use with OS cells. […]
Cells were diluted in assay media containing 2% BME, resuspended vigorously and 150 μL of the cell suspension was added on top of the gelled 3D BME layer. […] Cell numbers were determined in control vehicle (cells in media+0.1% DMSO), or treated wells and were measured on the indicated days by addition of 20 μL/well of MTS reagent (Cell Titer 96 Aqueous One, Promega, Madison, WI), followed by incubation at 37° C. for 2 h and absorbance measurements at 490 nm via plate reader (Molecular Devices, San Jose CA). […]

C=CCNC1=C2C[C@@H](C)C[C@H](OC)[C@H](O)[C@@H](C)/C=C(\C)[C@H](OC(N)=O)[C@@H](OC)/C=C\C=C(/C)C(=O)NC(=CC1=O)C2=O [tanespimycin]
activity on 3D BME compared with 2D: much stronger activity on 3D BME at significantly lower doses

Reference: patent publication US20250161287A1, “METHODS, COMPOSITIONS, AND COMBINATIONS FOR PREVENTING OR TREATING CANCER RECURRENCE” (VUJA DE SCIENCES, INC., priority 2022, published 2025)
